Data from patent US20100151003A1.
No constants are given. Whether binding was seen depends on the method and setting. Some results given as binding are weak or reduced against the parent protein; the word gives no strength.

Chains of the proteins cited; added tags and fusions are not shown. Lines headed by an entry give the natural chain unless they say otherwise; changes in a name come on top.
UniProt P01133: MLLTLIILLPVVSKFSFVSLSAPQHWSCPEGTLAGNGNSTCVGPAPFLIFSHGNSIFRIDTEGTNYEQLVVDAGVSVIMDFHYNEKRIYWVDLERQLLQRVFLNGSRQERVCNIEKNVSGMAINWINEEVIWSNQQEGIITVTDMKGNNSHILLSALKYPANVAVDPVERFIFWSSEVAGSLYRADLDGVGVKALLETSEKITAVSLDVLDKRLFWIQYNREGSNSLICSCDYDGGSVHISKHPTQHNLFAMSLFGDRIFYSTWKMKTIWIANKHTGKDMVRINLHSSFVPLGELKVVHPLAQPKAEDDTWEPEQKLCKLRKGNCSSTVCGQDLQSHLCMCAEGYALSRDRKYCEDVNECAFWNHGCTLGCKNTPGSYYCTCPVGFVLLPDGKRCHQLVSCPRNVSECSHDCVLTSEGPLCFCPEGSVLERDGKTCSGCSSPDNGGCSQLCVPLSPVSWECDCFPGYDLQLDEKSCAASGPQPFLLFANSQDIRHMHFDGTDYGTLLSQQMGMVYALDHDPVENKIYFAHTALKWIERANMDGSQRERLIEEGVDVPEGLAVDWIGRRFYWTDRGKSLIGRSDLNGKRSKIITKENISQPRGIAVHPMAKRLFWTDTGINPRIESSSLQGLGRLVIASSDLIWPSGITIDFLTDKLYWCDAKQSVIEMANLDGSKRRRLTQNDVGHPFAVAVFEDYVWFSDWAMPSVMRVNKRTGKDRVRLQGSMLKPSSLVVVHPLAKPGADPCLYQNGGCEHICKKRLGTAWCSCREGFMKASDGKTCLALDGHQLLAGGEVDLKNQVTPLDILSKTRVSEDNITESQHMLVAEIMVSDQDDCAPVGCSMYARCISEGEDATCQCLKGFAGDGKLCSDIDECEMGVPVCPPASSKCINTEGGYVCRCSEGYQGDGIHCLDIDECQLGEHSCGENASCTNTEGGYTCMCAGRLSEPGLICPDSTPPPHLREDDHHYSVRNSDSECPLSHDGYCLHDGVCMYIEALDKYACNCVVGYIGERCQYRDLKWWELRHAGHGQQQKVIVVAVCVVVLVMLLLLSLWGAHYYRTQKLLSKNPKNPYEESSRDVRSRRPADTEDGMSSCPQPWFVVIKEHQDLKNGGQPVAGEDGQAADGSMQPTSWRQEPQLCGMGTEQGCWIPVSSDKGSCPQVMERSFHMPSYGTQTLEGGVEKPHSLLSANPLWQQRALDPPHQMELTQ

Columns and labels:
[1] = biological target: EGF + sEGFR-MMB complex (human) (UniProt P01133); test: phage ELISA, coated sEGFR-MMB with EGF added in excess
[2] = biological target: sEGFR-MMB (dimeric soluble EGFR ectodomain mimetibody) (human); test: phage ELISA, sEGFR-MMB passively coated
[3] = biological target: biotinylated sEGFR-MMB (human); test: phage ELISA, b-EGFR-MMB captured on streptavidin [C]
[4] = biological target: sEGFR-MMB (dimeric soluble EGFR ectodomain mimetibody) (human); test: phage ELISA on passively coated sEGFR-MMB [A]
[5] = biological target: biotinylated sEGFR-MMB (human); test: phage ELISA, biotinylated sEGFR-MMB captured on streptavidin
[6] = biological target: sEGFR-MMB (dimeric soluble EGFR ectodomain mimetibody) (human); test: phage ELISA (FIG. 7)
[7] = biological target: biotinylated sEGFR-His6 (human) (UniProt P00533); test: phage ELISA (FIG. 7); sEGFR-His6 biotinylated and captured on streptavidin by Table 8
[8] = biological target: biotinylated sEGFR-His6 (human) (UniProt P00533); test: phage ELISA, b-EGFR-His captured on streptavidin [C]
[9] = biological target: biotinylated sEGFR-His6 (human) (UniProt P00533); test: phage ELISA, biotinylated sEGFR-His6 captured on streptavidin
[10] = biological target: sEGFR-MMB (dimeric soluble EGFR ectodomain mimetibody) (human); test: phage ELISA, coated sEGFR-MMB

Measured: binding

B1: phage P191 (pIII CNL1-11) (peptide, not shown: large carriers)
chain: AGHFYPTKTPGYGG
binds: [1]

B2: phage P193 (pIII CNL1-11) (peptide, not shown: large carriers)
chain: AGSYYWGYTVDIRRGG
binds: [1]

B3: phage P175 (pIX S15) (peptide, not shown: large carriers)
chain: GGGLPDDSLPELICKVRGGGGSGGSGG
binds: [2] | [3] | [4] | [5] | [6]

B4: phage P174 (pIX S16) (peptide, not shown: large carriers)
chain: GGGSGCLDALWQCVYGGGSGGSGG
binds: [7] | [2] | [3] | [4] | [5] | [8] | [6] | [9]

B5: phage P192 (pIII CNL1-11) (peptide, not shown: large carriers)
chain: AGAASRALWAFNSDGG
binds: [1]

B6: phage P173 (pIX S18) (peptide, not shown: large carriers)
chain: GGGTDCVIFGLETYCLRGGGSGGSGG
binds: [2] | [10] | [5] | [1]
